Results as given in patent US20230331803A1, “CO-AGONISTS OF THE GLP-1 AND AMYLIN RECEPTORS” (priority 2020, published 2023).
At least one compound was matched to its structure with a doubt left. Starred links: 1 amine or outer side, 2 acyl side, 3 side chain; linkers in the order of their positions; H or OH if unused. Positions of bridges follow the written chain, without caps; N, C: chain ends. Non-standard residues stand in square brackets, D forms with d. Groups on a side chain read outwards from the residue. *: point of attachment. C20 diacid = O=C(O)CCCCCCCCCCCCCCCCCCC(=O)*; C18 diacid = O=C(O)CCCCCCCCCCCCCCCCC(=O)*; γGlu = O=C(O)[C@H](CCC(=O)[*:2])N[*:1]; AEEA = NCCOCCOCC(=O)O; Aib = CC(C)(N)C(=O)O

Amino acid sequences for entries named in this document (tags omitted). Residues count along the entry.
UniProt P43220, 24-463: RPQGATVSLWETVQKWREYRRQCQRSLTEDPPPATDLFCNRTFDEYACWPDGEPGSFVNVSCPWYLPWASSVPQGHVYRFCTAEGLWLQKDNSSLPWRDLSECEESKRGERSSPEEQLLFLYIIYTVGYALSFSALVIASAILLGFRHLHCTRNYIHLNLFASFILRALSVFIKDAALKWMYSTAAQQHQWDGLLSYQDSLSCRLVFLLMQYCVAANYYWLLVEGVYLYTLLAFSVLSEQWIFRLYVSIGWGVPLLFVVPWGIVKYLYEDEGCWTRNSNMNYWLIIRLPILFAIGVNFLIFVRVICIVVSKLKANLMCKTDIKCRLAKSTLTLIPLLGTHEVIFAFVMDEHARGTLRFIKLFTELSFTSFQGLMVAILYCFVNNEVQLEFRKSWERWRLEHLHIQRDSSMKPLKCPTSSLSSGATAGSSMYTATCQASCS
UniProt O60896, 24-148: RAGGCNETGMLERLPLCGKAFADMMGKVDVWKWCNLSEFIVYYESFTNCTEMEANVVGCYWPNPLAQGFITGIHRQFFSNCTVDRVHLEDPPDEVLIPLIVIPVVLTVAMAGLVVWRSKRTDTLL
UniProt P30988, 25-474: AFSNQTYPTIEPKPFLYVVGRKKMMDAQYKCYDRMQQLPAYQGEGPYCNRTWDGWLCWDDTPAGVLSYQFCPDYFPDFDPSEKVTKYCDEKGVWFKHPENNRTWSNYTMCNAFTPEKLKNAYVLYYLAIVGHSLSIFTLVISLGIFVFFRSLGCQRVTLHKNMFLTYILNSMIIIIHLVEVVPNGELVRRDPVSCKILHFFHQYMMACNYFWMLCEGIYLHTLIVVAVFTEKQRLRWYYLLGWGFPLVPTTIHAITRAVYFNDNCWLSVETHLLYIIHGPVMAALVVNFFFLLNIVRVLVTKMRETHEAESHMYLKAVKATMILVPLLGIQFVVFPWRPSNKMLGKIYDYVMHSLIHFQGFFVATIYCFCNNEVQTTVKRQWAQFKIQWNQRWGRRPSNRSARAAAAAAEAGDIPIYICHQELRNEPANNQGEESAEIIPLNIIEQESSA

Columns and labels:
human GLP-1 receptor = molecular target: T1, human GLP-1 receptor (Homo sapiens, UniProt P43220); assay: Human GLP-1 receptor in vitro potency assay (CRE-luciferase reporter, BHK cells); assay type: cell-based; conditions: read-out: Human GLP-1 R potency [EC50 (pM)]; Table 4c; further comparator compounds
T1 construct: expressed in transfected cells; host or cells: BHK (Baby Hamster Kidney) cells, clone BHK 467-12A KZ-10, stably transfected, with CRE-luciferase reporter

[1] = molecular target: T2, human amylin receptor (hAmyR3) (Homo sapiens, UniProt O60896+P30988); assay: Human amylin receptor in vitro potency assay (CRE-luciferase reporter, BHK cells); assay type: cell-based; conditions: read-out: Human AmyR3 potency [EC50 (pM)]; Table 4c; further comparator compounds;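 also: BHK cells expressing human calcitonin receptor plus RAMP3 (amylin-3 receptor) with a CRE-luciferase reporter, agonist activity read as luminescence from cAMP-driven transcription, 7-point serial dilutions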
T2 construct: host or cells: BHK cells (Hollex-1 line: human calcitonin receptor (a) + CRE-Luc), further transfected with human RAMP3

Substance: H-H[Aib]EGTFTSDVSSYLEGQAAK([AEEA-AEEA-γGlu-C18 diacid])EFIAWLVRGRGGQEPGQEPK([γGlu-γGlu-C20 diacid])CNTATCATQRLADFLRHSSPNFGAIPSSTNVGSRTY-NH2 (disulfide 41-46) [Comparator compound 0668, reference compound]
- EC50 (human GLP-1 receptor): 455 pM
- EC50 [1]: ≥ 10000 pM
